Results published in publication PMC12604781 (PLOS Pathogens, 2025).
These are yes or no findings as the source states them, for the method shown. In cells and extracts the contact can be indirect. Some entries that bind do so weakly or less than the wild type. Sequences can lack the tags named with a protein.

Sequences of proteins named here, by UniProt entry; tags and fusion partners are left off.
UniProt Q8N884: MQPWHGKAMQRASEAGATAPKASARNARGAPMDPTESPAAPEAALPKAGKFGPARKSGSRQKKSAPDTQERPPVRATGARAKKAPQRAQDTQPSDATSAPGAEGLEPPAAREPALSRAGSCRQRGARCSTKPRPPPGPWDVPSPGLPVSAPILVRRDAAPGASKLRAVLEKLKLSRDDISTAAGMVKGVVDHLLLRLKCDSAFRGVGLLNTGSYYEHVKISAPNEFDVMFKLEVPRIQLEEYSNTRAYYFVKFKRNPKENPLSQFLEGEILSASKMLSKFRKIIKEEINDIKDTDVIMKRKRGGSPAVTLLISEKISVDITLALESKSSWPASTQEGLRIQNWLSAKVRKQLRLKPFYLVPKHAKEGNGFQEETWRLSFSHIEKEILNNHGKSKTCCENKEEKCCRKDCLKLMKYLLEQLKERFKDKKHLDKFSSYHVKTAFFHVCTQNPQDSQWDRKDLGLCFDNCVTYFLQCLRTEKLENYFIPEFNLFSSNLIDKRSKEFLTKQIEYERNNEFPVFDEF

Target: T1, HSV-1 US1 (C-terminal Flag, pCAGGS) (herpes simplex virus type 1 (HSV-1)) (UniProt P04485)
T1 sequence: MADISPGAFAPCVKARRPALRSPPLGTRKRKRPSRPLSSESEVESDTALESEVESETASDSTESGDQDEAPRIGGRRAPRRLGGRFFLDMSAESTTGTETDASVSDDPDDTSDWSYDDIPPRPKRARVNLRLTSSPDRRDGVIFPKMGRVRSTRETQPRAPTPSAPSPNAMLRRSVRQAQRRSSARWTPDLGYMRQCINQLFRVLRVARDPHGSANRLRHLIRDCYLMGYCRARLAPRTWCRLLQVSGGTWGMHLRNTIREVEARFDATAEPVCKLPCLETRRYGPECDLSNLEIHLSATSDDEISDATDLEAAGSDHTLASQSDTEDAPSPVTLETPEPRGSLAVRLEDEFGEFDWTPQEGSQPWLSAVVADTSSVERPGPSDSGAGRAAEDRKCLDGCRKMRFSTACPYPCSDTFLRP
Test: co-IP

Substance: hcGAS (C-terminal HA, pcDNA3.1) (from UniProt Q8N884 1-522) (enzyme)
- binding: binds
